Source: paper PMC6461802, “Coupling of ssRNA cleavage with DNase activity in type III-A CRISPR-Csm revealed by cryo-EM and biochemistry” (Cell Research, 2019)
Substitutions are numbered along the chain they refer to. No constants are given. Whether binding was seen depends on the method and setting. Some results given as binding are weak or reduced against the parent protein; the word gives no strength. Each block holds one binder with its values, some of them ahead of it.

How the values were obtained:
[1] = molecular target: T1, Csm2 of the Streptococcus thermophilus type III-A Csm complex (Streptococcus thermophilus DGCC8004); test: cryo-EM structure; apo state: StCsm complex with 40 nt crRNA, wild-type Csm3; big (3.4 Å) and small (3.3 Å) particle populations; ~0.4 mg/mL, buffer 10 mM Tris-HCl pH 8.0, 150 mM NaCl, 3 mM DTT; both purified
T1 sequence: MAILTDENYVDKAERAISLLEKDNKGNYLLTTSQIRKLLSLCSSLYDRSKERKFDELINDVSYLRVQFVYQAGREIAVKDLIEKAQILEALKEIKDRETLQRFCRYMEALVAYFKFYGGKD

[2] = molecular target: T1, Csm2 of the Streptococcus thermophilus type III-A Csm complex (Streptococcus thermophilus DGCC8004); test: cryo-EM structure; target ssRNA-bound state: StCsm complex with 40 nt crRNA and 49 nt target ssRNA, Csm3 D33A; big (3.4 Å) and small (3.5 Å) particle populations; ~0.4 mg/mL, buffer 10 mM Tris-HCl pH 8.0, 150 mM NaCl, 3 mM DTT; both purified
[3] = molecular target: T2, Csm3 of the Streptococcus thermophilus type III-A Csm complex (wild type, apo state) (Streptococcus thermophilus DGCC8004); test: cryo-EM structure; apo state: StCsm complex with 40 nt crRNA, wild-type Csm3; big (3.4 Å) and small (3.3 Å) particle populations; ~0.4 mg/mL, buffer 10 mM Tris-HCl pH 8.0, 150 mM NaCl, 3 mM DTT; both purified
T2 sequence: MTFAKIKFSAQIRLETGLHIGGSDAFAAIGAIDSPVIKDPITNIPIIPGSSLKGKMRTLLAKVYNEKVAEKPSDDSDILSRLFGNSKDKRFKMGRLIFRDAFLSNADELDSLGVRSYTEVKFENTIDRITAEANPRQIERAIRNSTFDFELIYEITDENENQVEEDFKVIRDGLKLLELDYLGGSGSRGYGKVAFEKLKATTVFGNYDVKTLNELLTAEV

[4] = molecular target: T3, Cas10 of the Streptococcus thermophilus type III-A Csm complex (Streptococcus thermophilus DGCC8004); test: as above
T3 sequence: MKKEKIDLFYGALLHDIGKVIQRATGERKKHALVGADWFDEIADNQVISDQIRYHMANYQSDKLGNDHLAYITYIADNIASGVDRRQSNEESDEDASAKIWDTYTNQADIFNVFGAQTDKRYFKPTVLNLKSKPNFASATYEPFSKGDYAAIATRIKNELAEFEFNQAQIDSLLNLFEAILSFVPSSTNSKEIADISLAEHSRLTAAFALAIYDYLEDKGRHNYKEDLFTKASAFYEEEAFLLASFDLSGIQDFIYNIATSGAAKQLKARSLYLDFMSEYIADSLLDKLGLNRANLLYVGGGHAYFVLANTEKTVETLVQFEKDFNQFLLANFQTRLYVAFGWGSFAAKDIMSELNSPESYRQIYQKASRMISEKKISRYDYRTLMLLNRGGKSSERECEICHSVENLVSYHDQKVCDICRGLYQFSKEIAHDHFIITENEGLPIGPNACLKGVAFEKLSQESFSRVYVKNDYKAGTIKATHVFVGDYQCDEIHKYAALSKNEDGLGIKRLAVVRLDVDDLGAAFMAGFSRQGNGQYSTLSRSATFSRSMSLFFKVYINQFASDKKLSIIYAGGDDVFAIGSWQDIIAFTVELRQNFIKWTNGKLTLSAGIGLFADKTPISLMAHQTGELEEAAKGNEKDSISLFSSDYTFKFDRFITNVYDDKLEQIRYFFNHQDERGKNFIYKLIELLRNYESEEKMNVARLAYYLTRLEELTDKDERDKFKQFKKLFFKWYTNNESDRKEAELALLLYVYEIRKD

[5] = molecular target: T4, Csm3 D33A of the Streptococcus thermophilus type III-A Csm complex (target ssRNA-bound state) (Streptococcus thermophilus DGCC8004); test: cryo-EM structure; target ssRNA-bound state: StCsm complex with 40 nt crRNA and 49 nt target ssRNA, Csm3 D33A; big (3.4 Å) and small (3.5 Å) particle populations; ~0.4 mg/mL, buffer 10 mM Tris-HCl pH 8.0, 150 mM NaCl, 3 mM DTT; both purified
T4 sequence: T2 sequence with D33A

[6] = molecular target: T3, Cas10 of the Streptococcus thermophilus type III-A Csm complex (Streptococcus thermophilus DGCC8004); test: as above

binding [1]: binds
binding [2]: binds
B1: Csm5 of the Streptococcus thermophilus type III-A Csm complex (protein, UniProt A0A0A7HF79 1-357)
chain: MKNDYRTFKLSLLTLAPIHIGNGEKYTSREFIYENKKFYFPDMGKFYNKMVEKRLAEKFEAFLIQTRPNARNNRLISFLNDNRIAERSFGGYSISETGLESDRNPNSAGAINEVNKFIRDAFGNPYIPGSSLKGAIRTILMNTTPKWNNENAVNDFGRFPKENKNLIPWGPKKGKEYDDLFNAIRVSDSKPFDNKRLILVQKWDYSAKTNKAKPLPLYRESISPLTKIEFEITTTTDEAGRLIEELGKRAQAFYKDYKAFFLSEFPDDKIQANLQYPIYLGAGSGAWTKTLFKQADGILQRRYSRMKTKMVKKGVLKLTKAPLKIVKIPSGNHSLIKNHESFYEMGKANFMIKEIDK

binding [3]: binds
binding [4]: binds
binding [5]: binds
binding [6]: binds
B2: Csm2 of the Streptococcus thermophilus type III-A Csm complex (natural protein, Streptococcus thermophilus DGCC8004)
chain: T1 sequence
notes: Csm2, Streptococcus thermophilus DGCC8004; csm2 is present both on the untagged gene cassette and on the His-tag plasmid, so the 3 or 5 copies in the complex may be a mix of tagged and untagged chains; No tag removal is described; also called Csm2a; Csm2b
